Test results as given in paper PMC8228714, “Structural Constraint of Osteopontin Facilitates Efficient Binding to CD44” (Biomolecules, 2021).
Results are given in words; binding and its absence hold for the method and conditions named. Some results given as binding are weak or reduced against the parent protein; the word gives no strength.

The chains behind the UniProt entries cited, without tags or fusion partners. Where a name states a change or a piece, a line headed by the entry shows the natural chain unless it says otherwise. Residues count along the entry.
UniProt Q13797: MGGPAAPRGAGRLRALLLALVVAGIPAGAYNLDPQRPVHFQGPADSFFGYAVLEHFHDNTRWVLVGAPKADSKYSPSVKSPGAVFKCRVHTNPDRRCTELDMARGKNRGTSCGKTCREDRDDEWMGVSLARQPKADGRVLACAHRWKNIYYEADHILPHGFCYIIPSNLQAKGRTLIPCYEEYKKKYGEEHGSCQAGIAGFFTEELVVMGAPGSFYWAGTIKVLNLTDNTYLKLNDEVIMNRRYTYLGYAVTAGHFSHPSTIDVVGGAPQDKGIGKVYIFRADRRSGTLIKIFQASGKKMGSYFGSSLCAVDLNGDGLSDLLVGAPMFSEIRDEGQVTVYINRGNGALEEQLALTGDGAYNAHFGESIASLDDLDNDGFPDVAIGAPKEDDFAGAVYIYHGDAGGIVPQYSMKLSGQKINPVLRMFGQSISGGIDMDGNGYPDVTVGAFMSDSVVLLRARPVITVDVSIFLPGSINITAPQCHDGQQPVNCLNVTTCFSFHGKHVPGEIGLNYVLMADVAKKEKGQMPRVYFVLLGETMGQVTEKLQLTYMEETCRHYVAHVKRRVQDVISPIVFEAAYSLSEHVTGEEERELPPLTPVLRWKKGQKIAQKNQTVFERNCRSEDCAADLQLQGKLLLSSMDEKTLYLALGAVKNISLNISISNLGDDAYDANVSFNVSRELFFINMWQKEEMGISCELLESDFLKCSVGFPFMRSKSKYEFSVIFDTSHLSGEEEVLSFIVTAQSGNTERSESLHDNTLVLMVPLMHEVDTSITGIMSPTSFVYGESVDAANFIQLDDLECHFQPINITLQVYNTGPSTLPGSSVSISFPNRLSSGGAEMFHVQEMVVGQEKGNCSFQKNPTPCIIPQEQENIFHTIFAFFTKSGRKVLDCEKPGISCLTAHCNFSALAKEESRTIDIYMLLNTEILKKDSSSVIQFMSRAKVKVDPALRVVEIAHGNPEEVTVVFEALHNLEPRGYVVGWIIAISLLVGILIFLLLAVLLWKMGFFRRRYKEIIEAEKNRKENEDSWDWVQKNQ
UniProt P13612: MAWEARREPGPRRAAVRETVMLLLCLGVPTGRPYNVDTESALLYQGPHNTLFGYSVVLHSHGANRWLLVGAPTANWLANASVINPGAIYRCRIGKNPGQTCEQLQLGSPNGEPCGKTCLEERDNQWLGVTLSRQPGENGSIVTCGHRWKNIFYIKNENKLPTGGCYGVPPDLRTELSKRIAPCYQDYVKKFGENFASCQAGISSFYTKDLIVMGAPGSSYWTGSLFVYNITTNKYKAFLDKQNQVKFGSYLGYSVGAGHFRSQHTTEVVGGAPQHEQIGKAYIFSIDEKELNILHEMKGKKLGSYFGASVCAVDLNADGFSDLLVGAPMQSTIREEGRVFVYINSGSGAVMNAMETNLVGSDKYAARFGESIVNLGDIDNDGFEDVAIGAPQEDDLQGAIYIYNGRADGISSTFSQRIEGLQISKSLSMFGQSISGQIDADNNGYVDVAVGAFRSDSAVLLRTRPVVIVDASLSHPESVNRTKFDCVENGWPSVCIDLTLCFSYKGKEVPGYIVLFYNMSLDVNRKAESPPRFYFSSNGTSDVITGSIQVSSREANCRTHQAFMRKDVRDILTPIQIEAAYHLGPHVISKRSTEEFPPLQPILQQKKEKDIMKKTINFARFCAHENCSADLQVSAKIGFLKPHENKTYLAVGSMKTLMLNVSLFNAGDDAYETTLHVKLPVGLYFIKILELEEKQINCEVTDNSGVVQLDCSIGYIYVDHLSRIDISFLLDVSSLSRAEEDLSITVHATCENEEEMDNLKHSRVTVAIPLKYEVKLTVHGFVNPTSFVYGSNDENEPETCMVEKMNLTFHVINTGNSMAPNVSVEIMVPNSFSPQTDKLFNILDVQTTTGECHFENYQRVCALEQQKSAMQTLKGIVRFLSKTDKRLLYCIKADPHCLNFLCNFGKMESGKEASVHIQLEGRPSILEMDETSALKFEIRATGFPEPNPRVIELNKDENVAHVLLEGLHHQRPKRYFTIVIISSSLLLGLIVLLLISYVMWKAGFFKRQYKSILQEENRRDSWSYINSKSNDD
UniProt P10451, residues 17-314: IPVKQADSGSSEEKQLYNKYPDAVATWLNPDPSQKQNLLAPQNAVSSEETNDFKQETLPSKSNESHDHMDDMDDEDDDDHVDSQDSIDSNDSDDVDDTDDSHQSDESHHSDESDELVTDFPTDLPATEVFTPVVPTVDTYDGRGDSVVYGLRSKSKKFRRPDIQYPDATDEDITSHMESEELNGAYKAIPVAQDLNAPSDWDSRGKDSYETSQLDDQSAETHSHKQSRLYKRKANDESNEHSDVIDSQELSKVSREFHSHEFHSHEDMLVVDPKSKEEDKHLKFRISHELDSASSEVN

Experiments:
[1] = biological target: T1, extracellular portion of integrin α9β1 (R&D Systems) (UniProt Q13797 30-977; P05556 21-728); test: ELISA; receptor (CD44v or integrin) plated on a high-binding 96-well plate, GST-OPN in solution 2 h at room temperature; 10 mM HEPES pH 7.4, 150 mM NaCl, 2 mM MnCl2, 0.05% Tween 20; detection with HRP-anti-GST; constants from double-reciprocal plots; both purified
T1 construct: also called α9β1 extracellular domain; source: bought: R&D Systems

[2] = biological target: extracellular portion of integrin α4β1 (R&D Systems) (UniProt P13612); test: as above

Substance: Bacterial recombinant GST-OPNa (after deletion of the signal sequence) (from UniProt P10451-1 17-314) (ligand)
- binding [1]: binds weakly
- binding [2]: binds weakly
